Source: paper PMC5815094
No constants are given. Whether binding was seen depends on the method and setting.

Chains of the proteins cited; added tags and fusions are not shown.
UniProt P0A6X3: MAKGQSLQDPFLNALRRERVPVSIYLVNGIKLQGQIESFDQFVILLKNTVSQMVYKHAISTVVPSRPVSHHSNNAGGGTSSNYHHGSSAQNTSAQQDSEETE
UniProt Q51380: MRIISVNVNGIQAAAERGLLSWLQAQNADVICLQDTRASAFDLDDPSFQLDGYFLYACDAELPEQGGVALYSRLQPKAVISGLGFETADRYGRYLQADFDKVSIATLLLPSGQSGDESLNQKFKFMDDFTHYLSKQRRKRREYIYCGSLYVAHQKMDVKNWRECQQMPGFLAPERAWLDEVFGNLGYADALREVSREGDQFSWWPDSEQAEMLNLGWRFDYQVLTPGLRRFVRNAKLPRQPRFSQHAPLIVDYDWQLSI

Target: E. coli HfqEc-T18 fusion protein (E. coli) (UniProt P0A6X3)
Test: two-hybrid

T25-Crc (from UniProt Q51380 1-259)
binding: no binding
